In PMC11535217:
No constants are given. Whether binding was seen depends on the method and setting. In cells and extracts the contact can be indirect. Binding can be weak; no strength is given.

By UniProt entry, the sequences of proteins in these tests, tags left out. Where a name states a change or a piece, a line headed by the entry shows the natural chain unless it says otherwise.
UniProt P58753: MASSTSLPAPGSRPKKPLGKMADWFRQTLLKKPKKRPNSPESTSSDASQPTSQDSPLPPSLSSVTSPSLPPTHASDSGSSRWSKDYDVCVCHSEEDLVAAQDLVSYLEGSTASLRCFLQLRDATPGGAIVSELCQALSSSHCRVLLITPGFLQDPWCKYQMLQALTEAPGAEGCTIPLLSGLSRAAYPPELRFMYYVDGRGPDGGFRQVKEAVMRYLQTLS
UniProt Q86XR7: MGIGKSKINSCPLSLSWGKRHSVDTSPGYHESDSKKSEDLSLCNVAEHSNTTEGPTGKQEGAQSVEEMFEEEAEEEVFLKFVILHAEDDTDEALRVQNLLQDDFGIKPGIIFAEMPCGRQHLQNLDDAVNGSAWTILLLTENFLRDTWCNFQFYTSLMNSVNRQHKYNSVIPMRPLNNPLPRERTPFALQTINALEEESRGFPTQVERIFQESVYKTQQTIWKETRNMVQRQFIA
UniProt Q8IUC6: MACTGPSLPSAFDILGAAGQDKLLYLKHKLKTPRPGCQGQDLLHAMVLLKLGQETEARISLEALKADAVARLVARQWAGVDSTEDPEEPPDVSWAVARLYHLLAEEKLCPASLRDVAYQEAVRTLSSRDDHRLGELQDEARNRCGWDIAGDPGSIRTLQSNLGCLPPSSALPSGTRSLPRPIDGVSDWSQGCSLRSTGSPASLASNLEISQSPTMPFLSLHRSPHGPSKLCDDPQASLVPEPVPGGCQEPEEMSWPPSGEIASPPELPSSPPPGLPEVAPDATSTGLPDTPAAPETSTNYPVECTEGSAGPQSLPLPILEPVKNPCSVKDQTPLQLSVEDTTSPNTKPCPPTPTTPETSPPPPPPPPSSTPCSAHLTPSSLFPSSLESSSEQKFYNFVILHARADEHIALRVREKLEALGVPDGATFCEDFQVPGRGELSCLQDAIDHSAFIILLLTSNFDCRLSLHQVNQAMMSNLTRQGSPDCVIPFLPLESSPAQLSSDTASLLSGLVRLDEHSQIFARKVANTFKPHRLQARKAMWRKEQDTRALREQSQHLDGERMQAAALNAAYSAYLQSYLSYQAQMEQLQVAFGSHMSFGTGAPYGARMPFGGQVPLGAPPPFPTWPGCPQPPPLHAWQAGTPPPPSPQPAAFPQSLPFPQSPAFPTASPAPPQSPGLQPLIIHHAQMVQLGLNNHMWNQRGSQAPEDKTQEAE
UniProt Q99836: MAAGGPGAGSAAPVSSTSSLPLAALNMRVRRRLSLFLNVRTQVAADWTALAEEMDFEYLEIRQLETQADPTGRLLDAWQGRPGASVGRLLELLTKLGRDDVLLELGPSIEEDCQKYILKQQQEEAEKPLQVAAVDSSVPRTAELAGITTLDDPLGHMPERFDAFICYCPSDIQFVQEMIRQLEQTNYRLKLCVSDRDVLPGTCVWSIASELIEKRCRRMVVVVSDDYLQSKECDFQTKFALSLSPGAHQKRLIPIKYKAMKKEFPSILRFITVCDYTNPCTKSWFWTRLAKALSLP
UniProt O00206: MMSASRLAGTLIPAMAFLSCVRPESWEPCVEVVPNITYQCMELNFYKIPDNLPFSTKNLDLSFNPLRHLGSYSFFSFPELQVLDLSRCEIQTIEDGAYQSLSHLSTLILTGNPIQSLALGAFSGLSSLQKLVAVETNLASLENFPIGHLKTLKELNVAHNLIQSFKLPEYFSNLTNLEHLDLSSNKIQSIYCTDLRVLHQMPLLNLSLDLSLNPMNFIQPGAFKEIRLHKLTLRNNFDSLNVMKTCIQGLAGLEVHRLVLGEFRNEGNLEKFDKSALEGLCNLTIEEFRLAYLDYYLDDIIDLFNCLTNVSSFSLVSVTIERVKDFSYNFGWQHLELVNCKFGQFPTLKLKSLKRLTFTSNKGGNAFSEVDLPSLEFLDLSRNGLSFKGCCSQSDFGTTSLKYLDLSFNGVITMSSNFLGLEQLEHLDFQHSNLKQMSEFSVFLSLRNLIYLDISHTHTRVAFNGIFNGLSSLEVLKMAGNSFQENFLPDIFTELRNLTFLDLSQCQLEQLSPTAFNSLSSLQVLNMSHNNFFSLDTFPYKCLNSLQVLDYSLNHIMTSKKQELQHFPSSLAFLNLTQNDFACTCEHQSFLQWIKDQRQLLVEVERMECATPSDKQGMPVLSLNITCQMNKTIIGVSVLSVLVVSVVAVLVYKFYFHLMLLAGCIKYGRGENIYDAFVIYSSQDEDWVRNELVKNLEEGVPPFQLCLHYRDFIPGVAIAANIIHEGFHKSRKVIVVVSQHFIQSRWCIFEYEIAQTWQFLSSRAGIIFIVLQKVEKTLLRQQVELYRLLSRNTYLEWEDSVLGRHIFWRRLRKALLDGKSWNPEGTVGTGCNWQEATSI

What was measured:
Experiment in all cases: co-IP; HEK293T transfected with tagged plasmids, with or without 1 μM TSA (6, 12 or 24 h); RIPA lysate; immunoprecipitation with Flag or HA antibody, western blot with Myc antibody
[1] = molecular target: Flag-MAL (human, full-length) (human) (UniProt P58753)
[2] = molecular target: Flag-MAL-E211A (human) (human) (UniProt P58753)
[3] = molecular target: Flag-MAL-R207A (human) (human) (UniProt P58753)
[4] = molecular target: Flag-TRAM (full-length) (UniProt Q86XR7)
[5] = molecular target: Flag-TRIF (full-length) (UniProt Q8IUC6)
[6] = molecular target: HA-MyD88 (human) (human) (UniProt Q99836)
[7] = molecular target: HA-MyD88-K261A (human) (human) (UniProt Q99836)

Measured: binding

Myc-TLR4-TIR (human TLR4 cytoplasmic TIR domain) (from UniProt O00206) (domain or fragment)
binds: [1] | [2] | [3] | [4] | [5] | [6] | [7]
